Source: paper PMC7670567
Results are given in words; binding and its absence hold for the method and conditions named. In cells and extracts the contact can be indirect. These calls come from enrichment with a bait or labelling near it, and not all partners need be listed.

B1: SLC25A10, endogenous (protein, UniProt Q9UBX3 1-287)
chain: MAAEARVSRWYFGGLASCGAACCTHPLDLLKVHLQTQQEVKLRMTGMALRVVRTDGILALYSGLSASLCRQMTYSLTRFAIYETVRDRVAKGSQGPLPFHEKVLLGSVSGLAGGFVGTPADLVNVRMQNDVKLPQGQRRNYAHALDGLYRVAREEGLRRLFSGATMASSRGALVTVGQLSCYDQAKQLVLSTGYLSDNIFTHFVASFIAGGCATFLCQPLDVLKTRLMNSKGEYQGVFHCAVETAKLGPLAFYKGLVPAGIRLIPHTVLTFVFLEQLRKNFGIKVPS
B2: SLC25A13, endogenous (protein, UniProt Q9UJS0 1-675)
chain: MAAAKVALTKRADPAELRTIFLKYASIEKNGEFFMSPNDFVTRYLNIFGESQPNPKTVELLSGVVDQTKDGLISFQEFVAFESVLCAPDALFMVAFQLFDKAGKGEVTFEDVKQVFGQTTIHQHIPFNWDSEFVQLHFGKERKRHLTYAEFTQFLLEIQLEHAKQAFVQRDNARTGRVTAIDFRDIMVTIRPHVLTPFVEECLVAAAGGTTSHQVSFSYFNGFNSLLNNMELIRKIYSTLAGTRKDVEVTKEEFVLAAQKFGQVTPMEVDILFQLADLYEPRGRMTLADIERIAPLEEGTLPFNLAEAQRQKASGDSARPVLLQVAESAYRFGLGSVAGAVGATAVYPIDLVKTRMQNQRSTGSFVGELMYKNSFDCFKKVLRYEGFFGLYRGLLPQLLGVAPEKAIKLTVNDFVRDKFMHKDGSVPLAAEILAGGCAGGSQVIFTNPLEIVKIRLQVAGEITTGPRVSALSVVRDLGFFGIYKGAKACFLRDIPFSAIYFPCYAHVKASFANEDGQVSPGSLLLAGAIAGMPAASLVTPADVIKTRLQVAARAGQTTYSGVIDCFRKILREEGPKALWKGAGARVFRSSPQFGVTLLTYELLQRWFYIDFGGVKPMGSEPVPKSRINLPAPNPDHVGGYKLAVATFAGIENKFGLYLPLFKPSVSTSKAIGGGP
B3: NNT, endogenous (protein, UniProt Q13423 44-1086)
chain: CKAPVKPGIPYKQLTVGVPKEIFQNEKRVALSPAGVQNLVKQGFNVVVESGAGEASKFSDDHYRVAGAQIQGAKEVLASDLVVKVRAPMVNPTLGVHEADLLKTSGTLISFIYPAQNPELLNKLSQRKTTVLAMDQVPRVTIAQGYDALSSMANIAGYKAVVLAANHFGRFFTGQITAAGKVPPAKILIVGGGVAGLASAGAAKSMGAIVRGFDTRAAALEQFKSLGAEPLEVDLKESGEGQGGYAKEMSKEFIEAEMKLFAQQCKEVDILISTALIPGKKAPVLFNKEMIESMKEGSVVVDLAAEAGGNFETTKPGELYIHKGITHIGYTDLPSRMATQASTLYSNNITKLLKAISPDKDNFYFDVKDDFDFGTMGHVIRGTVVMKDGKVIFPAPTPKNIPQGAPVKQKTVAELEAEKAATITPFRKTMSTASAYTAGLTGILGLGIAAPNLAFSQMVTTFGLAGIVGYHTVWGVTPALHSPLMSVTNAISGLTAVGGLALMGGHLYPSTTSQGLAALAAFISSVNIAGGFLVTQRMLDMFKRPTDPPEYNYLYLLPAGTFVGGYLAALYSGYNIEQIMYLGSGLCCVGALAGLSTQGTARLGNALGMIGVAGGLAATLGVLKPGPELLAQMSGAMALGGTIGLTIAKRIQISDLPQLVAAFHSLVGLAAVLTCIAEYIIEYPHFATDAAANLTKIVAYLGTYIGGVTFSGSLIAYGKLQGLLKSAPLLLPGRHLLNAGLLAASVGGIIPFMVDPSFTTGITCLGSVSALSAVMGVTLTAAIGGADMPVVITVLNSYSGWALCAEGFLLNNNLLTIVGALIGSSGAILSYIMCVAMNRSLANVILGGYGTTSTAGGKPMEISGTHTEINLDNAIDMIREANSIIITPGYGLCAAKAQYPIADLVKMLTEQGKKVRFGIHPVAGRMPGQLNVLLAEAGVPYDIVLEMDEINHDFPDTDLVLVIGANDTVNSAAQEDPNSIIAGMPVLEVWKSKQVIVMKRSLGVGYAAVDNPIFYKPNTAMLLGDAKKTCDALQAKVRESYQK
B4: carbamoyl phosphate synthetase (CPS1), endogenous (protein, UniProt P31327 39-1500)
chain: LSVKAQTAHIVLEDGTKMKGYSFGHPSSVAGEVVFNTGLGGYPEAITDPAYKGQILTMANPIIGNGGAPDTTALDELGLSKYLESNGIKVSGLLVLDYSKDYNHWLATKSLGQWLQEEKVPAIYGVDTRMLTKIIRDKGTMLGKIEFEGQPVDFVDPNKQNLIAEVSTKDVKVYGKGNPTKVVAVDCGIKNNVIRLLVKRGAEVHLVPWNHDFTKMEYDGILIAGGPGNPALAEPLIQNVRKILESDRKEPLFGISTGNLITGLAAGAKTYKMSMANRGQNQPVLNITNKQAFITAQNHGYALDNTLPAGWKPLFVNVNDQTNEGIMHESKPFFAVQFHPEVTPGPIDTEYLFDSFFSLIKKGKATTITSVLPKPALVASRVEVSKVLILGSGGLSIGQAGEFDYSGSQAVKAMKEENVKTVLMNPNIASVQTNEVGLKQADTVYFLPITPQFVTEVIKAEQPDGLILGMGGQTALNCGVELFKRGVLKEYGVKVLGTSVESIMATEDRQLFSDKLNEINEKIAPSFAVESIEDALKAADTIGYPVMIRSAYALGGLGSGICPNRETLMDLSTKAFAMTNQILVEKSVTGWKEIEYEVVRDADDNCVTVCNMENVDAMGVHTGDSVVVAPAQTLSNAEFQMLRRTSINVVRHLGIVGECNIQFALHPTSMEYCIIEVNARLSRSSALASKATGYPLAFIAAKIALGIPLPEIKNVVSGKTSACFEPSLDYMVTKIPRWDLDRFHGTSSRIGSSMKSVGEVMAIGRTFEESFQKALRMCHPSIEGFTPRLPMNKEWPSNLDLRKELSEPSSTRIYAIAKAIDDNMSLDEIEKLTYIDKWFLYKMRDILNMEKTLKGLNSESMTEETLKRAKEIGFSDKQISKCLGLTEAQTRELRLKKNIHPWVKQIDTLAAEYPSVTNYLYVTYNGQEHDVNFDDHGMMVLGCGPYHIGSSVEFDWCAVSSIRTLRQLGKKTVVVNCNPETVSTDFDECDKLYFEELSLERILDIYHQEACGGCIISVGGQIPNNLAVPLYKNGVKIMGTSPLQIDRAEDRSIFSAVLDELKVAQAPWKAVNTLNEALEFAKSVDYPCLLRPSYVLSGSAMNVVFSEDEMKKFLEEATRVSQEHPVVLTKFVEGAREVEMDAVGKDGRVISHAISEHVEDAGVHSGDATLMLPTQTISQGAIEKVKDATRKIAKAFAISGPFNVQFLVKGNDVLVIECNLRASRSFPFVSKTLGVDFIDVATKVMIGENVDEKHLPTLDHPIIPADYVAIKAPMFSWPRLRDADPILRCEMASTGEVACFGEGIHTAFLKAMLSTGFKIPQKGILIGIQQSFRPRFLGVAEQLHNEGFKLFATEATSDWLNANNVPATPVAWPSQEGQNPSLSSIRKLIRDGSIDLVINLPNNNTKFVHDNYVIRRTAVDSGIPLLTNFQVTKLFAEAVQKSRKVDSKSLFHYRQYSAGKAA
B5: SLC25A11, endogenous (protein, UniProt Q02978 1-314)
chain: MAATASAGAGGIDGKPRTSPKSVKFLFGGLAGMGATVFVQPLDLVKNRMQLSGEGAKTREYKTSFHALTSILKAEGLRGIYTGLSAGLLRQATYTTTRLGIYTVLFERLTGADGTPPGFLLKAVIGMTAGATGAFVGTPAEVALIRMTADGRLPADQRRGYKNVFNALIRITREEGVLTLWRGCIPTMARAVVVNAAQLASYSQSKQFLLDSGYFSDNILCHFCASMISGLVTTAASMPVDIAKTRIQNMRMIDGKPEYKNGLDVLFKVVRYEGFFSLWKGFTPYYARLGPHTVLTFIFLEQMNKAYKRLFLSG
B6: SEPT8, endogenous (protein, UniProt Q92599 1-483)
chain: MAATDLERFSNAEPEPRSLSLGGHVGFDSLPDQLVSKSVTQGFSFNILCVGETGIGKSTLMNTLFNTTFETEEASHHEACVRLRPQTYDLQESNVQLKLTIVDAVGFGDQINKDESYRPIVDYIDAQFENYLQEELKIRRSLFDYHDTRIHVCLYFITPTGHSLKSLDLVTMKKLDSKVNIIPIIAKADTISKSELHKFKIKIMGELVSNGVQIYQFPTDDEAVAEINAVMNAHLPFAVVGSTEEVKVGNKLVRARQYPWGVVQVENENHCDFVKLREMLIRVNMEDLREQTHSRHYELYRRCKLEEMGFQDSDGDSQPFSLQETYEAKRKEFLSELQRKEEEMRQMFVNKVKETELELKEKERELHEKFEHLKRVHQEEKRKVEEKRRELEEETNAFNRRKAAVEALQSQALHATSQQPLRKDKDKKNRSDIGAHQPGMSLSSSKVMMTKASVEPLNCSSWWPAIQCCSCLVRDATWREGFL
B7: SEPT11, endogenous (protein, UniProt Q9NVA2 1-429)
chain: MAVAVGRPSNEELRNLSLSGHVGFDSLPDQLVNKSTSQGFCFNILCVGETGIGKSTLMDTLFNTKFESDPATHNEPGVRLKARSYELQESNVRLKLTIVDTVGFGDQINKDDSYKPIVEYIDAQFEAYLQEELKIKRSLFNYHDTRIHACLYFIAPTGHSLKSLDLVTMKKLDSKVNIIPIIAKADTIAKNELHKFKSKIMSELVSNGVQIYQFPTDEETVAEINATMSVHLPFAVVGSTEEVKIGNKMAKARQYPWGVVQVENENHCDFVKLREMLIRVNMEDLREQTHTRHYELYRRCKLEEMGFKDTDPDSKPFSLQETYEAKRNEFLGELQKKEEEMRQMFVMRVKEKEAELKEAEKELHEKFDLLKRTHQEEKKKVEDKKKELEEEVNNFQKKKAAAQLLQSQAQQSGAQQTKKDKDKKNASFT
B8: septin 2 (SEPT2), endogenous (protein, UniProt Q15019 1-361)
chain: MSKQQPTQFINPETPGYVGFANLPNQVHRKSVKKGFEFTLMVVGESGLGKSTLINSLFLTDLYPERVIPGAAEKIERTVQIEASTVEIEERGVKLRLTVVDTPGYGDAINCRDCFKTIISYIDEQFERYLHDESGLNRRHIIDNRVHCCFYFISPFGHGLKPLDVAFMKAIHNKVNIVPVIAKADTLTLKERERLKKRILDEIEEHNIKIYHLPDAESDEDEDFKEQTRLLKASIPFSVVGSNQLIEAKGKKVRGRLYPWGVVEVENPEHNDFLKLRTMLITHMQDLQEVTQDLHYENFRSERLKRGGRKVENEDMNKDQILLEKEAELRRMQEMIARMQAQMQMQMQGGDGDGGALGHHV
B9: SEPT5, endogenous (protein, UniProt Q99719 1-369)
chain: MSTGLRYKSKLATPEDKQDIDKQYVGFATLPNQVHRKSVKKGFDFTLMVAGESGLGKSTLVHSLFLTDLYKDRKLLSAEERISQTVEILKHTVDIEEKGVKLKLTIVDTPGFGDAVNNTECWKPITDYVDQQFEQYFRDESGLNRKNIQDNRVHCCLYFISPFGHGLRPVDVGFMKALHEKVNIVPLIAKADCLVPSEIRKLKERIREEIDKFGIHVYQFPECDSDEDEDFKQQDRELKESAPFAVIGSNTVVEAKGQRVRGRLYPWGIVEVENQAHCDFVKLRNMLIRTHMHDLKDVTCDVHYENYRAHCIQQMTSKLTQDSRMESPIPILPLPTPDAETEKLIRMKDEELRRMQEMLQRMKQQMQDQ

target: HCLS1-associated protein X-1 (HAX1), endogenous (human (endogenous in HeLa and MCF7)) (UniProt O00165); experiment: affinity purification with mass spectrometry; HeLa lysate (150 mM NaCl, 20 mM Tris/HCl pH 7.4, 0.75% Nonidet-P40); endogenous HAX1 precipitated with anti-HAX1 rabbit polyclonal antibody on Dynabeads protein A, overnight, 4°C; controls: IgG and HAX1 KO cells; LC-MS/MS

binding, binds:
B1
B2
B3
B4

target: HCLS1-associated protein X-1 (HAX1), endogenous (human (endogenous in HeLa and MCF7)) (UniProt O00165); experiment: affinity purification with mass spectrometry; MCF7 lysate (150 mM NaCl, 20 mM Tris/HCl pH 7.4, 0.75% Nonidet-P40); endogenous HAX1 precipitated with anti-HAX1 rabbit polyclonal antibody on Dynabeads protein A, overnight, 4°C; control: IgG; LC-MS/MS

binding, binds:
B2
B5
B6
B7
B8
B9
